In the supplement of paper PMC3334620:
Whole data set: some 33,000 sequences, median “E-score (-0.5 to 0.5)” near -0.016, cut for the highest 2% near 0.3. The list shows a part of the results.

target: T1, Yer184c (UniProt P39961); experiment: PBM E-score (8-mer binding enrichment) (E-score (-0.5 to 0.5)); higher = stronger / more preferred TF binding; settings: protein concentration: 100 nM; construct: GST-full length
T1 sequence: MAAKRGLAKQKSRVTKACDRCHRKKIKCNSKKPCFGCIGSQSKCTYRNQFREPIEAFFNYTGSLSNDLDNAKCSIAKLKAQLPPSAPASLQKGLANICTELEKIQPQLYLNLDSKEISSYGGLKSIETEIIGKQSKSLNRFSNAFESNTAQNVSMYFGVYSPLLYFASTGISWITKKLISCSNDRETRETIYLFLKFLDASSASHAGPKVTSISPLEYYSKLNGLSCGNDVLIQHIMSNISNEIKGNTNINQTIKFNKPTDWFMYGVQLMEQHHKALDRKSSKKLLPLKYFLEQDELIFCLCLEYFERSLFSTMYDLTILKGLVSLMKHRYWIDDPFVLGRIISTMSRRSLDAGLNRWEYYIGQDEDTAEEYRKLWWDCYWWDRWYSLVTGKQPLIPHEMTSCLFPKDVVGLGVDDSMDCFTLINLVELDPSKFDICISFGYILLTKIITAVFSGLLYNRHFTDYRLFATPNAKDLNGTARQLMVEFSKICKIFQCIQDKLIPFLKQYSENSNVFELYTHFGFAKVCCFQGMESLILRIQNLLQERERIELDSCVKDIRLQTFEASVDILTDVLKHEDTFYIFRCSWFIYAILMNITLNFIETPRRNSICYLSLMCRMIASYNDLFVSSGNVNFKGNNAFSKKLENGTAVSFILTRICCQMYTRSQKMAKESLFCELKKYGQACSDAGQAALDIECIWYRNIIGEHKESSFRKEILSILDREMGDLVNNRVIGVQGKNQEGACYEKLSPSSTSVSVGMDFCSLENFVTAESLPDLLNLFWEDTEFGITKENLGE
Procedure: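 Universal 'all 10-mer' protein binding microarrays (Agilent AMADID 015681) probed with GST-tagged S. cerevisiae TFs (full-length or DBD) made by in vitro transcription/translation (PURExpress), about 100-200 nM. Bound TF was detected with fluorescent anti-GST. Each ungapped 8-mer (which stands for itself and its reverse complement) is scored by the PBM enrichment score (E-score), a modified Wilcoxon-Mann-Whitney statistic from -0.5 to +0.5, computed with the Universal PBM Analysis Suite. Scale: above 0.35 generally sequence-specific binding.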

Compared with ACCTCTAT, CGCCGCCA is higher in “PBM E-score” value: 0.0127 for the first, 0.0955 for the second.

Going from CCGTACCC to AAAACCTA, the “PBM E-score” value rises from 0.0339 to 0.0965.

Going from CAAATGTG to AGGGAGAT, the “PBM E-score” value falls from 0.173 to -0.264.

Compared with AAGTGAAC, ACAAAAGC is higher in “PBM E-score” value: -0.118 for the first, 0.155 for the second.

Compared with GTGCTCCA, ATGATACC is higher in “PBM E-score” value: -0.164 for the first, 0.177 for the second.

Compared with AACGCTGC, GCTCGTAA is lower in “PBM E-score” value: -0.0934 for the first, -0.0998 for the second.

First: GCCACTAA
Second: ACTCGGCA
The “PBM E-score” value of the first is lower: -0.138 for the first, 0.299 for the second.

Compared with GCACACAA, AAGTGTCA is lower in “PBM E-score” value: 0.072 for the first, -0.293 for the second.

Compared with ACGTAAGA, TAATTCAA is higher in “PBM E-score” value: 0.0481 for the first, 0.2 for the second.

Going from GACTCGAA to CTGTCGCC, the “PBM E-score” value falls from -0.0931 to -0.124.

Going from GCGAGTCC to ATCGGGCC, the “PBM E-score” value rises from -0.144 to 0.00051.

First: GAGCTCTA
Second: CGCCTGGA
The “PBM E-score” value of the first is higher: -0.0976 for the first, -0.144 for the second.

Going from AATCAACA to CTTGAGCC, the “PBM E-score” value falls from 0.22 to -0.156.

Compared with ATAGGCAT, CTGTCAAA is higher in “PBM E-score” value: -0.124 for the first, 0.0616 for the second.

Going from GTCACACA to ACTACTAT, the “PBM E-score” value rises from -0.161 to 0.229.

Going from GATGGCGC to CGTGGATC, the “PBM E-score” value falls from -0.182 to -0.29.

First: GGCAATAC
Second: CGAGACCG
The “PBM E-score” value of the first is higher: 0.19 for the first, 0.156 for the second.

Compared with GCCTTCGA, CCATCCCG is higher in “PBM E-score” value: -0.137 for the first, -0.106 for the second.

Going from AAAAGATA to CTTATCCA, the “PBM E-score” value falls from 0.169 to 0.0531.

Compared with ACCATGGC, AACTCCTG is lower in “PBM E-score” value: 0.127 for the first, -0.224 for the second.

Compared with TATCTCAA, AACCGATA is lower in “PBM E-score” value: 0.168 for the first, 0.138 for the second.

Compared with GATTTGCA, CTTCATAC is lower in “PBM E-score” value: 0.133 for the first, 0.0285 for the second.

Going from ATCAACAC to ACATCTAG, the “PBM E-score” value falls from 0.0913 to -0.0165.

Going from TCTAGACA to CCGTGCGA, the “PBM E-score” value rises from 0.0416 to 0.166.

First: CTGAAAGA
Second: AGTGGAAA
The “PBM E-score” value of the first is higher: 0.167 for the first, -0.0383 for the second.

Compared with AAGCAGAC, GTGCTTTA is higher in “PBM E-score” value: -0.195 for the first, 0.00912 for the second.

Compared with CACACATG, CCTTTGCC is higher in “PBM E-score” value: -0.265 for the first, -0.14 for the second.

Compared with AATTCGTA, GAGAGCGA is lower in “PBM E-score” value: 0.138 for the first, -0.0954 for the second.

Compared with GGTGTGAA, CGTTGCAG is lower in “PBM E-score” value: 0.182 for the first, -0.18 for the second.

First: ACATTAGA
Second: CCTAATAG
The “PBM E-score” value of the first is higher: -0.0226 for the first, -0.0409 for the second.

First: ACACCGTG
Second: AATGGCGA
The “PBM E-score” value of the first is higher: -0.00201 for the first, -0.0217 for the second.

Going from CCGGTTGC to CAAATTGG, the “PBM E-score” value falls from 0.355 to 0.029.

Going from AAATGGGA to AGACGGCC, the “PBM E-score” value rises from -0.239 to -0.0276.

Compared with GCGAAAAA, CACTTTGG is lower in “PBM E-score” value: 0.14 for the first, -0.105 for the second.

Going from TCGATAAA to CATCTAAG, the “PBM E-score” value falls from 0.245 to -0.105.

First: AGACCTAC
Second: GCCTTCAC
The “PBM E-score” value of the first is lower: -0.0814 for the first, -0.0769 for the second.

Going from AGGGGTTA to GGCTTGAA, the “PBM E-score” value rises from -0.234 to 0.057.

Compared with CCAACCCG, TAATCGAA is higher in “PBM E-score” value: -0.0269 for the first, 0.106 for the second.

Going from CCTAGCTC to GGTTTTAA, the “PBM E-score” value rises from -0.0492 to 0.179.

First: AACATGCA
Second: AGACCCTG
The “PBM E-score” value of the first is higher: -0.101 for the first, -0.252 for the second.

Going from CCACTGCA to CAAGATGG, the “PBM E-score” value rises from -0.2 to -0.108.

First: CGCAGGTA
Second: AGCCGGAC
The “PBM E-score” value of the first is lower: -0.0608 for the first, 0.339 for the second.

First: GGGGAGAA
Second: CGCCCCCC
The “PBM E-score” value of the first is higher: -0.0977 for the first, -0.352 for the second.

First: CGTTACTC
Second: CCGGTTAA
The “PBM E-score” value of the first is lower: -0.0712 for the first, 0.297 for the second.

First: TATCATGA
Second: GACCCGAC
The “PBM E-score” value of the first is lower: -0.0236 for the first, -0.0162 for the second.

Compared with ACCTTATA, CCAAACGG is lower in “PBM E-score” value: 0.0526 for the first, -0.0361 for the second.

First: ACCTAGAA
Second: AATTGGCC
The “PBM E-score” value of the first is higher: 0.0471 for the first, -0.127 for the second.

Compared with ATTTATAC, GCCTTCCA is lower in “PBM E-score” value: 0.28 for the first, -0.306 for the second.

Compared with ATATAGAG, ACCTCCTA is lower in “PBM E-score” value: -0.15 for the first, -0.245 for the second.

Going from CAGAATCG to AGTTGGAT, the “PBM E-score” value falls from 0.209 to -0.0537.

Going from CGACATAC to GCAGGATA, the “PBM E-score” value falls from -0.0669 to -0.168.

Going from AGTTACAC to GACGGCAC, the “PBM E-score” value falls from 0.0959 to -0.121.

Compared with GTAAAGTA, CAAGTGTC is lower in “PBM E-score” value: 0.053 for the first, -0.218 for the second.

Going from AACCAGAG to CCAATGTA, the “PBM E-score” value rises from -0.147 to -0.12.

For GCACGACC, the “PBM E-score” value was -0.252.
